# The list is a part of this screen's results and no random one: it is rich in T/C values a quarter to a half above the control, in often repeated tests (any T/C) and in doses without a T/C. Other doses and runs of a compound stand elsewhere. T/C is the treated group as % of the vehicle group. Some entries give survivors of the animals treated and no T/C: the source files T/C as zero there, which appears to mark a toxic dose or a test without result, not a measured value. Some doses without a T/C left all or most animals alive at the check, yet need not have been tolerated: survival well below the control is almost never listed, so the zero probably covers shortened survival too. Counts of survivors are from the toxicity check (mostly the fifth day) where no day follows; animals may have died later. Schedules are NCI's codes, taken here to give the interval after Q, in days (D) or hours (H), and the number of doses after X. For survival time, this PubChem deposit counts one and a half times the control or more as active, and values a quarter to a half above the control carry no call in these data; other NCI protocols may use other cut-offs. Some entries were tested several times; the values are given in rising order. Some schedule codes hold Z or #, which are not explained here. Some T/C values are followed by the survivors on the day toxicity was checked, most often the fifth; without a count, all were alive then.
# Test system: L1210 leukemia ip in BDF1 mice, survival T/C
# Experiment: NCI In Vivo Anticancer Drug Screen. Data for tumor model L1210 Leukemia (intraperitoneal) in B6D2F1 (BDF1) mice
# Conditions: T/C endpoint: mean survival time, higher T/C = longer survival
# [1] = dose: 100.0 mg/kg/injection, schedule: Q04DX003 (ip), vehicle: Klucel (hydroxypropylcellulose) (HPC)
# [2] = dose: 200.0 mg/kg/injection, schedule: Q04DX003 (ip), vehicle: Klucel (hydroxypropylcellulose) (HPC)
# [3] = dose: 400.0 mg/kg/injection, schedule: Q04DX003 (ip), vehicle: Klucel (hydroxypropylcellulose) (HPC)
# [4] = dose: 200.0 mg/kg/injection, schedule: Q01DX001 (ip), vehicle: saline
# [5] = dose: 400.0 mg/kg/injection, schedule: Q01DX001 (ip), vehicle: saline
# [6] = dose: 200.0 mg/kg/injection, schedule: Q01DX009 (ip), vehicle: saline with Tween-80
# [7] = dose: 400.0 mg/kg/injection, schedule: Q01DX009 (ip), vehicle: saline with Tween-80
# [8] = dose: 400.0 mg/kg/injection, schedule: Q04DX003 (ip), vehicle: saline
structure (smiles),measurement,setting,value
CCC[CH2][Hg][Cl],survivor count,"dose: 25.0 mg/kg/injection, schedule: Q01DX009 (ip), vehicle: saline with Tween-80",0 of 6
same,survivor count,[1],0 of 6
same,survivor count,[2],0 of 6
same,survivor count,[3],0 of 6
S=P(/C=C/c1ccccc1)(c1ccccc1)c1ccccc1,survivor count,"dose: 400.0 mg/kg/injection, schedule: Q01DX009 (ip), vehicle: Klucel (hydroxypropylcellulose) (HPC)",6 of 6
O=C(OCC1OC(n2cnc3c(=S)nc[nH]c32)C(OC(=O)c2ccc([N+](=O)[O-])cc2)C1OC(=O)c1ccc([N+](=O)[O-])cc1)c1ccc([N+](=O)[O-])cc1 (stereo not drawn),T/C,"dose: 66.0 mg/kg/injection, schedule: Q01DX009 (ip), vehicle: saline with Tween-80",138 % of control
same,T/C,"dose: 132.0 mg/kg/injection, schedule: Q01DX009 (ip), vehicle: saline",148 % of control
same,T/C,[4],129 % of control
same,T/C,"dose: 200.0 mg/kg/injection, schedule: Q01DX Z (ip), vehicle: other",125 % of control
same,T/C,"dose: 300.0 mg/kg/injection, schedule: Q01DX001 (ip), vehicle: saline",128 % of control
same,T/C,"dose: 300.0 mg/kg/injection, schedule: Q01DX009 (ip), vehicle: saline",139 % of control
same,survivor count,[5],3 of 6
same,T/C,"dose: 400.0 mg/kg/injection, schedule: Q01DX Z (ip), vehicle: other",130 % of control
CCCCCCN(C)Cc1ccc(OCCOc2ccc(CN(C)CCCCCC)cc2)cc1,survivor count,"dose: 100.0 mg/kg/injection, schedule: Q01DX001 (ip), vehicle: saline",0 of 4
same,survivor count,[4],0 of 4
same,survivor count,[5],0 of 4
O=C(O)C(CSC(c1ccccc1)(c1ccccc1)c1ccccc1)N=Cc1cccs1 (stereo not drawn),T/C,"dose: 35.0 mg/kg/injection, schedule: Q01DX009 (ip), vehicle: saline",128 % of control
same,survivor count,"dose: 100.0 mg/kg/injection, schedule: Q01DX009 (ip), vehicle: saline with Tween-80",3 of 6
same,survivor count,"dose: 150.0 mg/kg/injection, schedule: Q01DX009 (ip), vehicle: saline",6 of 6
O=S(=O)(/C=C/c1ccccc1)c1ccc(F)cc1,survivor count,"dose: 200.0 mg/kg/injection, schedule: Q01DX009 (ip), vehicle: acetone",6 of 6
same,survivor count,"dose: 400.0 mg/kg/injection, schedule: Q01DX009 (ip), vehicle: acetone",4 of 6
Nc1nc(N)c2c(n1)Nc1ccc(Cl)nc1S2,survivor count,"dose: 300.0 mg/kg/injection, schedule: Q01DX009 (ip), vehicle: Klucel (hydroxypropylcellulose) (HPC)",2 of 6
COC1/C=C/OC2(C)Oc3c(C)c(O)c4c(O)c(c(/C=N/N5C(C)CN(Cc6ccc(C)cc6)CC5C)c(O)c4c3C2=O)NC(=O)C(C)=C/C=C/C(C)C(O)C(C)C(O)C(C)C(OC(C)=O)C1C (stereo not drawn),survivor count,[6],6 of 6
same,survivor count,[7],2 of 6
Cc1cc2ccccc2[n+](C)c1-c1ccccc1Cl,survivor count,"dose: 25.0 mg/kg/injection, schedule: Q04DX003 (ip), vehicle: saline",0 of 6
same,survivor count,"dose: 50.0 mg/kg/injection, schedule: Q04DX003 (ip), vehicle: saline",0 of 6
Cc1cc(=O)n2c3c(cc(C#N)cc13)OC2,survivor count,"dose: 200.0 mg/kg/injection, schedule: Q04DX002 (ip), vehicle: Klucel (hydroxypropylcellulose) (HPC)",5 of 6
CC(C)(CCCO)c1ccccc1,survivor count,[6],1 of 3
O=S(=O)(CC12CC1(O)C1CCC2C1)c1ccccc1 (stereo not drawn),survivor count,[8],0 of 6
CC1=C(Cl)C(Cl)(Cl)C(=O)C(=O)C1(Cl)Cl,survivor count,[1],1 of 6
same,survivor count,[2],0 of 6
same,survivor count,[3],0 of 6
O=[N+]([O-])CC(NNC(C[N+](=O)[O-])C(Cl)(Cl)Cl)C(Cl)(Cl)Cl (stereo not drawn),survivor count,[7],6 of 6
OCCN=Cc1ccccc1O.OCCN=Cc1ccccc1O.[Ni],survivor count,"dose: 300.0 mg/kg/injection, schedule: Q01DX001 (ip), vehicle: other",2 of 6
COc1ccc2c(=O)c(C)c(C)oc2c1CN1CCOCC1,survivor count,"dose: 12.5 mg/kg/injection, schedule: Q01DX009 (ip), vehicle: saline",6 of 6
CC1NC(=O)C(NC(=O)c2cnc3ccccc3n2)COC(=O)C(C(C)C)N(C)C(=O)C2CSSCC(C(=O)N(C)C(C(C)C)C(=O)OCC(NC(=O)c3cnc4ccccc4n3)C(=O)NC(C)C(=O)N2C)N(C)C1=O (stereo not drawn),T/C,"dose: 200.0 micrograms/kg/injection, schedule: Q01DX009 (ip), vehicle: other",133 % of control
O=C(Nc1cccc(C(F)(F)F)c1)Nc1c(Oc2ccc(Cl)c(Cl)c2)ccc(Cl)c1S(=O)(=O)O,survivor count,[8],0 of 6
Cc1cccc(OCCOc2cccc(C)c2)c1,survivor count,[5],6 of 6
CS(=O)(=O)OCCN=C(N)N[N+](=O)[O-],survivor count,[2],1 of 6
same,survivor count,[3],0 of 6
Nc1nc(-c2ccccc2)c(CCCOc2ccccc2)c(=O)[nH]1,survivor count,"dose: 50.0 mg/kg/injection, schedule: Q01DX009 (ip), vehicle: gum acacia",6 of 6
same,survivor count,"dose: 200.0 mg/kg/injection, schedule: Q01DX009 (ip), vehicle: gum acacia",6 of 6
CC(=O)OC1=NC(C)c2c1cc(OC(C)=O)[nH]c2=O (stereo not drawn),survivor count,"dose: 100.0 mg/kg/injection, schedule: Q01DX009 (ip), vehicle: Klucel (hydroxypropylcellulose) (HPC)",6 of 6
same,survivor count,"dose: 200.0 mg/kg/injection, schedule: Q01DX009 (ip), vehicle: Klucel (hydroxypropylcellulose) (HPC)",2 of 6
same,survivor count,[3],3 of 6
c1ccc(C(c2ccccc2)[P+](c2ccccc2)(c2ccccc2)c2ccccc2)cc1,T/C,"dose: 3.0 mg/kg/injection, schedule: Q01DX005 (ip), vehicle: gum acacia",126 and 129 % of control
same,survivor count,"dose: 6.0 mg/kg/injection, schedule: Q01DX005 (ip), vehicle: gum acacia",3 of 3
same,survivor count,"dose: 6.0 mg/kg/injection, schedule: Q01DX009 (ip), vehicle: gum acacia",3 of 3
same,survivor count,"dose: 12.5 mg/kg/injection, schedule: Q01DX005 (ip), vehicle: gum acacia",3 of 3
same,survivor count,"dose: 25.0 mg/kg/injection, schedule: Q01DX005 (ip), vehicle: gum acacia",0 of 3
same,survivor count,"dose: 25.0 mg/kg/injection, schedule: Q04DX002 (ip), vehicle: gum acacia",3 of 3
same,survivor count,"dose: 50.0 mg/kg/injection, schedule: Q04DX002 (ip), vehicle: gum acacia",0 of 3
O=NN(CCCl)C(=O)Nc1ccc(Br)cn1,T/C,"dose: 6.7 mg/kg/injection, schedule: Q01DX009 (ip), vehicle: carboxymethylcellulose (CMC)",133 % of control [5 of 6 alive]
same,T/C,"dose: 12.6 mg/kg/injection, schedule: Q01DX009 (ip), vehicle: carboxymethylcellulose (CMC)",142 % of control [5 of 6 alive]
same,T/C,"dose: 19.0 mg/kg/injection, schedule: Q01DX009 (ip), vehicle: carboxymethylcellulose (CMC)",137 % of control [5 of 6 alive]
same,T/C,"dose: 29.6 mg/kg/injection, schedule: Q01DX009 (ip), vehicle: carboxymethylcellulose (CMC)",141 % of control
same,T/C,"dose: 44.0 mg/kg/injection, schedule: Q01DX001 (ip), vehicle: carboxymethylcellulose (CMC)",133 % of control
same,T/C,"dose: 44.4 mg/kg/injection, schedule: Q01DX001 (ip), vehicle: carboxymethylcellulose (CMC)",131 % of control
same,T/C,"dose: 44.4 mg/kg/injection, schedule: Q01DX009 (ip), vehicle: carboxymethylcellulose (CMC)",131 % of control
same,T/C,"dose: 66.6 mg/kg/injection, schedule: Q01DX001 (ip), vehicle: carboxymethylcellulose (CMC)",142 % of control
same,survivor count,"dose: 66.6 mg/kg/injection, schedule: Q01DX009 (ip), vehicle: carboxymethylcellulose (CMC)",6 of 6
same,T/C,"dose: 100.0 mg/kg/injection, schedule: Q01DX001 (ip), vehicle: carboxymethylcellulose (CMC)",125 % of control
same,survivor count,"dose: 100.0 mg/kg/injection, schedule: Q01DX009 (ip), vehicle: carboxymethylcellulose (CMC)",5 of 6
same,survivor count,"dose: 200.0 mg/kg/injection, schedule: Q01DX001 (ip), vehicle: carboxymethylcellulose (CMC)",0 of 4
same,survivor count,"dose: 400.0 mg/kg/injection, schedule: Q01DX001 (ip), vehicle: carboxymethylcellulose (CMC)",0 of 4
N#CSCc1ccccc1Cl,survivor count,"dose: 100.0 mg/kg/injection, schedule: Q04DX003 (ip), vehicle: saline with Tween-80",0 of 6
same,survivor count,"dose: 200.0 mg/kg/injection, schedule: Q04DX003 (ip), vehicle: saline with Tween-80",0 of 6
same,survivor count,"dose: 400.0 mg/kg/injection, schedule: Q04DX003 (ip), vehicle: saline with Tween-80",0 of 6

# From PubChem BioAssay AID248 (DTP/NCI, 2004)
